The target in this data set is T1, eIF4G1 1-82 (Saccharomyces cerevisiae) (UniProt P39935).
T1 sequence (looked up): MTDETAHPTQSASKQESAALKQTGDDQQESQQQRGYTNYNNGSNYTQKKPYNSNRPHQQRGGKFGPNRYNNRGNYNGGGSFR
In words: NMR (1H-15N HSQC titration). To be noted: chemical shift changes about half of those with A14; NMR: 25 mM potassium phosphate pH 6.5, 25 or 150 mM NaCl, 1 mM DTT, 10% D2O, 25 C, 800 MHz (general NMR conditions; not stated specifically for RNA titrations); recombinant protein; residues 1-82.

Weaker means in comparison with the reference protein, sequence or condition of that experiment. Where a protein sequence is shown, tags need not be part of it.

On to AAAAAAAAAAAA [A12], for which the binding result is “binds more weakly”.

For the origin of these results see article PMC9537944, “eIF4G1 N-terminal intrinsically disordered domain is a multi-docking station for RNA, Pab1, Pub1, and self-assembly” (Frontiers in Molecular Biosciences, 2022).
